In PubChem BioAssay AID248 (DTP/NCI, 2004):
The list does not hold the whole screen: it gathers tests that were run many times, whatever their T/C, doses with no T/C, and many T/C values between a quarter and a half above the control. Other doses and runs of a compound stand elsewhere. T/C gives the treated animals as a percentage of the vehicle group. Some doses have a count of surviving animals in place of a T/C: the source holds a T/C of zero for them, seemingly a mark for toxic or unscored doses. Counts of survivors are from the toxicity check (mostly the fifth day) where no day follows; animals may have died later. Schedules are NCI's codes, read here as Q, the interval in days (D) or hours (H), X, the number of doses.

Test system: L1210 leukemia ip in BDF1 mice, survival T/C
Assay: NCI In Vivo Anticancer Drug Screen. Data for tumor model L1210 Leukemia (intraperitoneal) in B6D2F1 (BDF1) mice
Settings: T/C endpoint: mean survival time, higher T/C = longer survival
[1] = dose: 100.0 mg/kg/injection, schedule: Q04DX003 (ip), vehicle: Klucel (hydroxypropylcellulose) (HPC)
[2] = dose: 200.0 mg/kg/injection, schedule: Q04DX003 (ip), vehicle: Klucel (hydroxypropylcellulose) (HPC)
[3] = dose: 400.0 mg/kg/injection, schedule: Q04DX003 (ip), vehicle: Klucel (hydroxypropylcellulose) (HPC)

In the case of `Cc1ccc([As+](c2ccccc2)(c2ccccc2)c2ccccc2)cc1`, the survivor count (dose: 40.0 mg/kg/injection, schedule: Q01DX001 (ip), vehicle: saline) is reported as 2 of 6 and the survivor count (dose: 80.0 mg/kg/injection, schedule: Q01DX001 (ip), vehicle: saline) is reported as 0 of 6.

With `CCc1ccc(C(O)C(=O)O)cc1` (stereo not given) the survivor count (dose: 300.0 mg/kg/injection, schedule: Q01DX001 (ip), vehicle: acetone) was 2 of 6.

For `Nc1c(Cl)c(Cl)c(Cl)c(Cl)c1C(=O)O`, the survivor count (dose: 300.0 mg/kg/injection, schedule: Q04DX003 (ip), vehicle: saline) was 1 of 6.

For `CC(C)NC(C)c1c[nH]c2ccccc12` (stereo not given), the survivor count [1] was 1 of 6, the survivor count [2] was 0 of 6 and the survivor count [3] was 0 of 6.

In the case of `CCCCCCCCCCCCSCCOC(=O)C1C2CCC(O2)C1C(=O)O` (stereo not given), the survivor count [1] is reported as 0 of 6, the survivor count [2] is reported as 0 of 6 and the survivor count [3] is reported as 0 of 6.
